# Literature values as cited in EP1399158B1, “NON-THERAPEUTIC METHOD OF SUPPRESSING OESTRUS IN MAMMALIAN NON-HUMAN ANIMAL” (Vetcare Oy, priority 2001, dated 2002).
# Some of these results come from one statement about several compounds together.
# Test system: aromatase and desmolase
# Settings: compared with the compounds of formula (I); cited from earlier work
compound,measurement,value
N#Cc1ccc(C(c2ccc(C#N)cc2)n2cncn2)cc1 [Letrozole],selectivity of aromatase inhibition versus desmolase activity,far less selective aromatase inhibitors
